Measurements reported in PubChem BioAssay AID504467 (National Center for Advancing Translational Sciences (NCATS), 2011).
The campaign covered roughly 330,000 compounds. About 7,700 (2.3%) were called active. The inconclusive results got no clear call from the source; some entries with a clear call stand among them for comparison. Calls follow the shape of the dose curve; as a rule, active = well fitted inhibition curve with a large enough effect; inconclusive = small, poorly fitted or top-dose-only effect, or effect the other way; inactive = flat fitted curve, though single readings scatter. Potencies of inconclusive entries are doubtful fits and often do not repeat.
Potency is read from the fitted curve at half-maximal effect.

Assay: qHTS screen for small molecules that inhibit ELG1-dependent DNA repair in human embryonic kidney (HEK293T) cells expressing luciferase-tagged ELG1; also: nearly all actives have a fitted effect of over 55% in size
Conditions: HEK293T ELG1-luciferase reporter, luminescence, 16 h, DNA damage induced by 5-fluorouridine; series mostly up to 46.1 µM
Method in brief: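 5-Fluorouridine DNA damage + compound/DMSO, 2,000 cells/well, 16 h, 37 °C/5% CO2. ONE-Glo, 30 min RT, luminescence. Readout = decrease in reporter signal.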
With `Cc1occc1C(=O)Nc1ccc2c(c1)OCCO2` the Potency was inconclusive: 2.59 µM [activator, full curve]. With `COCCNC(=O)/C(C#N)=C/c1cccc(NC(=O)c2ccccc2Cl)c1` the Potency was inconclusive: 16.4 µM [activator, single point]. For `COc1cc(OC)cc(C(=O)NNC(=O)NC2CCCCC2)c1`, the Potency was inconclusive: 2.31 µM [inhibitor, partial curve, poor fit]. For `CCOc1ccc(N(CC(=O)N2CC=C(c3ccccc3)CC2)S(=O)(=O)c2c(C)noc2C)cc1`, the Potency was inconclusive: 23.1 µM [inhibitor, single point]. With `CC(C)(C)NC(=O)CN(C(=O)C1CSC(=O)C1)c1ccccc1F` (stereo not drawn) the Potency was “inactive”. In the case of `Cn1c(Sc2ccc(Br)cc2)c(C=O)c2ccccc21`, the Potency was inconclusive: 4.11 µM [inhibitor, partial curve, poor fit]. In the case of `CCN(CC(=O)Nc1ccc2c(c1)OCCO2)C(=O)c1ccc(Cl)cc1Cl`, the Potency was inconclusive: 5.17 µM [activator, partial curve]. In the case of `O=C(N/N=C/c1ccccn1)c1cc(-c2ccc3ccccc3c2)n[nH]1`, the Potency was inconclusive: 18.4 µM [inhibitor, partial curve]. For `Cn1c(=N)n(CC(O)c2ccco2)c2ccccc21` (stereo not drawn), the Potency was “inactive”. For `O=C(Oc1ccccc1)N1CCN(c2ccc(F)cc2)CC1`, the Potency was inconclusive: 29.1 µM [inhibitor, single point]. With `N#C/C(=C/C=C/c1ccccc1)C(=O)Nc1ccccc1` the Potency was active: 5.8 µM. In the case of `O=C(NCc1ccco1)/C(=C\C=C\c1ccccc1)NC(=O)c1ccccc1Br`, the Potency was active: 23.1 µM. For `CN(C)c1ccc(/C=N/NC(=O)c2ccn(C)n2)cc1`, the Potency was inconclusive: 16.4 µM [activator, partial curve]. With `CC(c1ccon1)N(C)C(=O)CCc1nnc(Cc2ccc(-c3ccccc3)cc2)o1` (stereo not drawn) the Potency was inconclusive: 18.3 µM [inhibitor, single point]. With `O=C(c1ccc(Oc2ccc([N+](=O)[O-])cc2Cl)cc1)N1CCCC1` the Potency was inconclusive: 23.1 µM [inhibitor, partial curve, poor fit]. For `c1cncc(-c2nc(NCCCn3ccnc3)c3ccccc3n2)c1`, the Potency was inconclusive: 25.9 µM [inhibitor, single point]. In the case of `O=C(CC1C(=O)NCCN1CCCc1ccccc1)NCCc1ccccc1Cl` (stereo not drawn), the Potency was “inactive”. In the case of `COc1ccc(CC(=O)N(CC2CCCO2)c2nc3ccccc3s2)cc1` (stereo not drawn), the Potency was inconclusive: 16.4 µM [activator, single point]. For `O=C(Nc1nc2ccccc2s1)c1cc(-c2ccccc2)nn1-c1ccccc1`, the Potency was inconclusive: 29.1 µM [activator, single point]. In the case of `CCCOc1cccc(C(=O)NC(=S)Nc2cccc(NC(=O)c3ccccc3Cl)c2)c1`, the Potency was inconclusive: 25.9 µM [inhibitor, partial curve, poor fit]. For `CC/C(=N\NC(=O)c1cc(C)nc2ccccc12)c1ccc(C)s1`, the Potency was inconclusive: 2.91 µM [inhibitor, full curve, poor fit]. In the case of `O=C(Cn1[nH]c(=O)c2ccccc2c1=O)NC1CCCCCC1`, the Potency was inconclusive: 29.1 µM [activator, single point]. For `CN1CCN(c2ccc(NC(=O)c3ccc(Cl)cc3Cl)cc2)CC1`, the Potency was inconclusive: 20.6 µM [activator, partial curve]. In the case of `O=C(O)c1cccc(NS(=O)(=O)c2ccc(C3CCCCC3)cc2)c1`, the Potency was “inactive”. For `CCCc1c(C(=O)N/N=C/c2ccc(OCc3ccccc3)c(OC)c2)nnn1-c1nonc1N`, the Potency was “inactive”. In the case of `O=c1cc2oc3cc(O)c(O)cc3c(-c3ccccc3O)c-2cc1O`, the Potency was inconclusive: 29.1 µM [inhibitor, partial curve, poor fit]. For `CCOCCCNc1ncnc2c1[nH]c1ccccc12`, the Potency was active: 14.6 µM. For `C/C(=N\Nc1c(Cl)c(Cl)nc(C(=O)O)c1Cl)c1ccc(O)cc1`, the Potency was “inactive”. For `c1ccc(-c2csc(-c3ccncc3)n2)cc1`, the Potency was inconclusive: 20.6 µM [activator, partial curve]. For `Cc1nn(-c2ccccc2)c(Cl)c1/C=N/NC(=O)OC(C)(C)C`, the Potency was inconclusive: 29.1 µM [inhibitor, single point]. With `C=CCn1c(=N)n(CC(O)COc2ccccc2OC)c2ccccc21` (stereo not drawn) the Potency was inconclusive: 32.6 µM [inhibitor, partial curve, poor fit]. For `CCOC(=O)c1cnc2c(c(C)nn2C)c1Oc1ccc(OC)cc1`, the Potency was inconclusive: 20.6 µM [inhibitor, single point]. With `CCCSCCCNC(=O)c1ccc(C)c(NC(=O)C2=C(C)OCCS2)c1` the Potency was inconclusive: 25.9 µM [inhibitor, partial curve, poor fit]. For `COc1ccc2c(c1)c1nc3ccccc3nc1n2CCn1c(=O)oc2ccccc21`, the Potency was inconclusive: 2.06 µM [inhibitor, single point]. In the case of `Cc1cccc(N2CCN(C(=O)c3ccc(N4CCCC4=O)cc3)CC2)c1C`, the Potency was active: 18.4 µM. For `CC(C)C[C@H](CO)Nc1nc(N(C)c2cccc(Cl)c2)c2ncn(C(C)C)c2n1`, the Potency was inconclusive: 29.1 µM [inhibitor, single point]. For `CCN1CCC(CNCc2cn(-c3ccc(OC)cc3)nc2-c2ccccc2Cl)C1` (stereo not drawn), the Potency was “inactive”. In the case of `Cc1nn(CCc2n[nH]c(=S)n2-c2ccc(F)cc2)c(C)c1[N+](=O)[O-]`, the Potency was inconclusive: 20.6 µM [activator, partial curve, poor fit]. In the case of `C=CCn1c(-c2csc(-c3ccc(Cl)cc3)n2)n[nH]c1=S`, the Potency was “inactive”. For `O=C(O)CSc1nnc(CSc2nc3ccccc3s2)n1-c1ccccc1`, the Potency was “inactive”. With `COc1ccccc1C1CCN(C(=O)c2ccc(Cl)cc2)CC1` the Potency was inconclusive: 16.4 µM [inhibitor, single point]. With `COc1cc(CCC(=O)OCc2ccccc2C#N)cc(OC)c1OC` the Potency was inconclusive: 16.4 µM [activator, partial curve, poor fit]. With `COc1ccc(OC)c(NC(=O)C23CC4CC(C2)CC(n2cnc(Br)n2)(C4)C3)c1` the Potency was “inactive”. With `Cc1c(/C(O)=C2/C(=O)C(=O)N(Cc3cccnc3)C2c2cccs2)cnn1-c1ccccc1` (stereo not drawn) the Potency was inconclusive: 4.61 µM [activator, partial curve, poor fit]. With `CCc1ccccc1N1CN(Cc2cccnc2)CNC1=S` the Potency was “inactive”. In the case of `Cc1c(CCC(=O)NCCCn2ccnc2)c(=O)oc2cc3occ(C(C)(C)C)c3cc12`, the Potency was “inactive”. With `Cc1nc(-c2cnn(-c3ccccc3)c2)c2cc(C)oc2n1` the Potency was inconclusive: 18.4 µM [inhibitor, single point]. For `CN(C)S(=O)(=O)c1ccc(C(=O)Nc2ccc(CN3CCCC3)cc2)cc1`, the Potency was inconclusive: 23.1 µM [activator, partial curve]. With `O=C(CN1c2ccccc2Sc2ccccc21)N/N=C/c1ccc([N+](=O)[O-])cc1` the Potency was inconclusive: 23.1 µM [inhibitor, single point]. For `Cc1cccc(NC(=O)c2c(C)nn(-c3ccccc3)c2Cl)c1`, the Potency was inconclusive: 29.1 µM [activator, single point]. With `Cc1ccc2oc(=O)c3cc(C(=O)NCCCN4CC(C)CC(C)C4)sc3c2c1` (stereo not drawn) the Potency was inconclusive: 29.1 µM [activator, single point]. In the case of `O=C(CCc1nnc2n(Cc3ccc(Cl)cc3)c(=O)c3ccccc3n12)N1CCN(c2ccccn2)CC1`, the Potency was active: 3.66 µM. In the case of `CC(C)CCN1CC(O)=C(c2nc(-c3ccc(Cl)cc3)cs2)C1=N`, the Potency was inconclusive: 20.6 µM [activator, partial curve, poor fit]. For `Cc1ccc2nc3c(cc(S(=O)(=O)c4ccccc4)c(=N)n3Cc3ccco3)c(=O)n2c1`, the Potency was inconclusive: 5.8 µM [activator, single point]. In the case of `Cc1ccn(CCC(=O)N2CCc3ccccc32)n1`, the Potency was inconclusive: 29.1 µM [activator, partial curve, poor fit]. In the case of `Cc1ccccc1CCN(C(=O)Cn1nnc2ccccc21)C(C(=O)NC(C)(C)C)c1ccsc1` (stereo not drawn), the Potency was inconclusive: 18.4 µM [activator, partial curve, poor fit]. In the case of `Cc1cc(C)n(-c2ccc(C(=O)N3CCC(CO)(Cc4ccccc4)CC3)cc2)n1`, the Potency was inconclusive: 16.4 µM [inhibitor, partial curve, poor fit]. For `CCC(=O)NCCNc1nc2cc(C)cc(C)c2cc1C#N`, the Potency was inconclusive: 6.51 µM [inhibitor, single point]. For `COc1ccccc1NC(=O)CN1CCN(CC(=O)Nc2cc(NC(C)=O)ccc2OC)CC1`, the Potency was inconclusive: 7.31 µM [inhibitor, partial curve]. With `COc1ccc2sc(N(CCN(C)C)C(=O)/C=C/c3cccs3)nc2c1` the Potency was inconclusive: 18.3 µM [activator, partial curve, poor fit]. For `Clc1cccc(Cl)c1CNCCCSc1ncccn1`, the Potency was “inactive”. With `O=C(CNC(=O)c1cccs1)Nc1cccc(S(=O)(=O)N2CCOCC2)c1` the Potency was “inactive”. With `S=C1NCCOCCNC(=S)NCCOCCOCCN1` the Potency was “inactive”. With `COc1ccc(C=NCCCN2CCOCC2)cc1` the Potency was inconclusive: 16.4 µM [activator, single point]. For `CN[C@H](C)C(=O)NC[C@H]1O[C@@H](n2cnc3c(N)ncnc32)[C@H](O)[C@@H]1O`, the Potency was “inactive”. In the case of `CC1CCCC(NC(=O)CN2C(=O)NC(Cc3c[nH]c4ccccc34)C2=O)C1C` (stereo not drawn), the Potency was inconclusive: 29.1 µM [activator, single point]. In the case of `Cc1cccc(OCCSc2nnc(-c3ccoc3C)n2C)c1`, the Potency was “inactive”. With `COc1ccc(C(=O)N=c2sc3ccccc3n2C)cc1OC` the Potency was inconclusive: 2.59 µM [activator, full curve].
